{"source": "PubChem BioAssay AID1224826 (NIAID, 2016)", "aim": "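Regulators of Tlr4 signalling leading to Tnf-alpha expression in macrophages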 (primary screen)", "cells": "RAW264.7 G9 macrophages from mouse bearing reporters for p65 (GFP) and the Tnf promoter (mCherry)", "reagent": "siRNA pool against mouse genes, 100 nM", "time to read-out": "16 h of LPS stimulation, after 2 days of siRNA transfection", "conditions": "bacterial lipopolysaccharide (Salmonella minnesota R595), 10 ng/ml", "measured": "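Imaged Tnf reporter mCherry in nuclei, minus background, normalised per plate to the median and expressed as robust z-scores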", "reading the numbers": "Tnf reporter robust z-score: higher = stronger Tnf promoter reporter signal after LPS", "hit rule": "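a well counts as active at a score of -1.3 or below (Tlr4 knock-down control median) or above 3 (raised signal); controls and wells holding fewer than 50 cells are excluded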", "meaning of the calls": "active = Tnf reporter clearly lowered or raised; inactive = no clear change in Tnf reporter", "note": "In all, the deposit lists about 17,000 reagents; below is an unselected part. About 1,110 of them (6.6%) were called active. 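Active means lowered or raised reporter signal; replicate intensities are raw and not normalised per plate.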 A reagent listed more than once was tested more than once; the source does not tell the runs apart. Not all columns of the deposit are shown."}
{"gene":"Prl2c3","PubChem SID":"SID315468585","Tnf reporter robust z-score":0,"fewer than 50 cells in well":"enough cells in well","outcome":"inactive"}
{"gene":"Capg","PubChem SID":"SID315465743","Tnf reporter robust z-score":-0.24,"fewer than 50 cells in well":"enough cells in well","outcome":"inactive"}
{"gene":"Spart","PubChem SID":"SID315478696","Tnf reporter robust z-score":0.11,"fewer than 50 cells in well":"enough cells in well","outcome":"inactive"}
{"gene":"9030203C11Rik","PubChem SID":"SID315481407","Tnf reporter robust z-score":-1.06,"fewer than 50 cells in well":"enough cells in well","outcome":"inactive"}
{"gene":"Zfp108","PubChem SID":"SID315471290","fewer than 50 cells in well":"fewer than 50 cells per well; well left out of calls","outcome":"inactive"}
{"gene":"Aftph","PubChem SID":"SID315478008","Tnf reporter robust z-score":-0.48,"fewer than 50 cells in well":"enough cells in well","outcome":"inactive"}
{"gene":"Or52p2","PubChem SID":"SID315480399","fewer than 50 cells in well":"fewer than 50 cells per well; well left out of calls","outcome":"inactive"}
{"gene":"Or8g24","PubChem SID":"SID315480112","Tnf reporter robust z-score":-1.4,"fewer than 50 cells in well":"enough cells in well","outcome":"active"}
{"gene":"Dysf","PubChem SID":"SID315470471","Tnf reporter robust z-score":-0.45,"fewer than 50 cells in well":"enough cells in well","outcome":"inactive"}
{"gene":"Grm2","PubChem SID":"SID315476677","Tnf reporter robust z-score":-1.11,"fewer than 50 cells in well":"enough cells in well","outcome":"inactive"}
{"gene":"Pglyrp4","PubChem SID":"SID315481841","Tnf reporter robust z-score":0.64,"fewer than 50 cells in well":"enough cells in well","outcome":"inactive"}
{"gene":"Ryr3","PubChem SID":"SID315469074","Tnf reporter robust z-score":0.85,"fewer than 50 cells in well":"enough cells in well","outcome":"inactive"}
{"gene":"Seh1l","PubChem SID":"SID315474464","Tnf reporter robust z-score":0.88,"fewer than 50 cells in well":"enough cells in well","outcome":"inactive"}
{"gene":"Wdr64","PubChem SID":"SID315475209","fewer than 50 cells in well":"fewer than 50 cells per well; well left out of calls","outcome":"inactive"}
{"gene":"Coxfa4","PubChem SID":"SID315468122","Tnf reporter robust z-score":-1.45,"fewer than 50 cells in well":"enough cells in well","outcome":"active"}
{"gene":"Uevld","PubChem SID":"SID315471146","Tnf reporter robust z-score":-1.26,"fewer than 50 cells in well":"enough cells in well","outcome":"inactive"}

A stretch from the list above, as a working copy:
{"gene":"Aftph","PubChem SID":"SID315478008","Tnf reporter robust z-score":-0.48,"fewer than 50 cells in well":"enough cells in well","outcome":"inactive"}
{"gene":"Or52p2","PubChem SID":"SID315480399","fewer than 50 cells in well":"fewer than 50 cells per well; well left out of calls","outcome":"inactive"}

Next entries follow.
{"gene":"Gm4814","PubChem SID":"SID315478194","Tnf reporter robust z-score":-0.24,"fewer than 50 cells in well":"enough cells in well","outcome":"inactive"}
{"gene":"Exoc6","PubChem SID":"SID315476596","Tnf reporter robust z-score":-0.63,"fewer than 50 cells in well":"enough cells in well","outcome":"inactive"}
{"gene":"Chuk","PubChem SID":"SID315465968","Tnf reporter robust z-score":-0.69,"fewer than 50 cells in well":"enough cells in well","outcome":"inactive"}
{"gene":"Tirap","PubChem SID":"SID315477084","Tnf reporter robust z-score":-1.18,"fewer than 50 cells in well":"enough cells in well","outcome":"inactive"}
{"gene":"Tle6","PubChem SID":"SID315477017","Tnf reporter robust z-score":0.96,"fewer than 50 cells in well":"enough cells in well","outcome":"inactive"}
{"gene":"Mink1","PubChem SID":"SID315470892","Tnf reporter robust z-score":0.46,"fewer than 50 cells in well":"enough cells in well","outcome":"inactive"}
{"gene":"Gsta2","PubChem SID":"SID315467055","Tnf reporter robust z-score":0.78,"fewer than 50 cells in well":"enough cells in well","outcome":"inactive"}
{"gene":"Kmo","PubChem SID":"SID315476122","Tnf reporter robust z-score":0.27,"fewer than 50 cells in well":"enough cells in well","outcome":"inactive"}
{"gene":"Trem3","PubChem SID":"SID315471879","Tnf reporter robust z-score":1.18,"fewer than 50 cells in well":"enough cells in well","outcome":"inactive"}
{"gene":"Agtr2","PubChem SID":"SID315465354","Tnf reporter robust z-score":-0.4,"fewer than 50 cells in well":"enough cells in well","outcome":"inactive"}
{"gene":"Agtr2","PubChem SID":"SID315465354","Tnf reporter robust z-score":0.36,"fewer than 50 cells in well":"enough cells in well","outcome":"inactive"}
